PubChem BioAssay AID1259308 – NCATS | 2017
The deposit covers about 59,000 reagents; shown is a part drawn at random. About 1,510 of all reagents (2.6%) were called active. 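Calls use total luciferase alone and ignore viability, so some active siRNAs may act by altering cell number.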 Entries without a mark were called inactive. Reagents against one gene are numbered here. Not all columns of the deposit are shown.

Screen: 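Candidate targets for better recombinant protein yield in mammalian cells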 (primary screen)
Cell system: human HEK293 embryonic kidney cells stably expressing firefly luciferase (HEK-CMV-Luc2-Hygro)
Reagents: single siRNA against human genes, 0.8 pmol siRNA per well
Time to read-out: 72 h
Detection: 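Luciferase light (ONE-Glo) measured on one replicate plate set and viability (CellTiter-Glo) on the other, scaled to a negative control siRNA, with robust z-scores and luciferase per cell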
Reading the numbers: total luciferase, z-score and total luciferase, % of control: higher = more reporter protein produced
Call rule: 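An siRNA counts as active if its total luciferase robust z-score exceeds 3; genes with two or more such siRNAs out of three were retested with fresh siRNAs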
Meaning of the calls: active = raised luciferase; inactive = no rise

no.	target gene	reagent	total luciferase, z-score	total luciferase, % of control
1	ARMCX3	1	-0.496	72
2	ARMCX3	2	-0.524	71.5
3	ARMCX3	3	-0.196	78
4	WDFY2	1	1.39	110
5	WDFY2	2	0.245	86.8
6	WDFY2	3	-0.289	76.1
7	TBX10	1	0.212	86.1
8	TBX10	2	1.3	108
9	TBX10	3	0.832	98.4
10	ARL14EP	1	-0.401	73.9
11	ARL14EP	2	-0.566	70.6
12	ARL14EP	3	0.275	87.4
13	COL4A1	1	0.998	102
14	COL4A1	2	0.833	98.4
15	COL4A1	3	-0.741	67.1
16	TPX2	1	-0.202	77.9
17	TPX2	2	-1.01	61.8
18	TPX2	3	-1.04	61.3
19	CRLS1	1	0.372	89.3
20	CRLS1	2	-0.709	67.8
21	CRLS1	3	1.43	110
22	AXL	1	-0.779	66.4
23	AXL	2	-0.218	77.6
24	AXL	3	-0.292	76.1
